Source: publication PMC6991697
No constants are given. Whether binding was seen depends on the method and setting. In cells and extracts the contact can be indirect. Some entries that bind do so weakly or less than the wild type.

Chains of the proteins cited; added tags and fusions are not shown.
UniProt P0DMV8: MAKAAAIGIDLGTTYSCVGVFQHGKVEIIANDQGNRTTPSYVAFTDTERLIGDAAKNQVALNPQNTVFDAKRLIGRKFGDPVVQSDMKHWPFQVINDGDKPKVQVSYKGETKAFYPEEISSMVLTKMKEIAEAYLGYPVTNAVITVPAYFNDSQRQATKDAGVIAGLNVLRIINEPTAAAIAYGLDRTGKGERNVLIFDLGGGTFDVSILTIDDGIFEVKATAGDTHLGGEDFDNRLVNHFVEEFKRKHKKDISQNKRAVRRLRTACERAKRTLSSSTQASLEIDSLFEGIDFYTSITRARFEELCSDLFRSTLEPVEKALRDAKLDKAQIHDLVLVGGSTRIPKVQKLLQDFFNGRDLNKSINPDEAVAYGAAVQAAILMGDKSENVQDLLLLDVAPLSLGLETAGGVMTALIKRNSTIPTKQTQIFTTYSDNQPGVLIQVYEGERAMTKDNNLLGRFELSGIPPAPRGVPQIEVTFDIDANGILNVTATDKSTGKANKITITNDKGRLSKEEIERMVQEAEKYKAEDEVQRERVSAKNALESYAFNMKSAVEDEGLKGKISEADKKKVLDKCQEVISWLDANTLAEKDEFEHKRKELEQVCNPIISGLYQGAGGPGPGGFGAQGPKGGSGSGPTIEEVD

Target: T1, LIM and SH3 protein 1 (LASP1), endogenous (human (endogenous in CAL27 and HN6)) (UniProt Q14847)
T1 sequence: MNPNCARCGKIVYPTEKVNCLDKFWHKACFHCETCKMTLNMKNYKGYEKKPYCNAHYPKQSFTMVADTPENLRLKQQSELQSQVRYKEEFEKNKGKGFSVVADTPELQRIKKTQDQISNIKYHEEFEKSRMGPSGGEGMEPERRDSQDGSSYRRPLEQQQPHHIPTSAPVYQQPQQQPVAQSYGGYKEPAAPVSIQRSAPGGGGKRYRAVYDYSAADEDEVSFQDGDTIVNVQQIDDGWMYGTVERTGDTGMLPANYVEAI
Test: co-IP; endogenous proteins; cell lysates (1 mg/mL) with anti-LASP1 or anti-HSPA1A antibody and protein A/protein G agarose beads overnight at 4°C, washed with PBS 3 times; Western blot with anti-LASP1 or anti-HSPA1A

binding: binds
Substance: Heat shock protein family A member 1A (HSPA1A), endogenous (from UniProt P0DMV8 1-641)
